Laboratory results taken from paper PMC6421297, “Novel Mouse Tauopathy Model for Repetitive Mild Traumatic Brain Injury: Evaluation of Long-Term Effects on Cognition and Biomarker Levels After Therapeutic Inhibition of Tau Phosphorylation” (Frontiers in Neurology, 2019).

Amino acid sequences for entries named in this document (tags omitted). A change or cut given only in a name is not applied to a line headed by its entry.
UniProt P34152, whole entry: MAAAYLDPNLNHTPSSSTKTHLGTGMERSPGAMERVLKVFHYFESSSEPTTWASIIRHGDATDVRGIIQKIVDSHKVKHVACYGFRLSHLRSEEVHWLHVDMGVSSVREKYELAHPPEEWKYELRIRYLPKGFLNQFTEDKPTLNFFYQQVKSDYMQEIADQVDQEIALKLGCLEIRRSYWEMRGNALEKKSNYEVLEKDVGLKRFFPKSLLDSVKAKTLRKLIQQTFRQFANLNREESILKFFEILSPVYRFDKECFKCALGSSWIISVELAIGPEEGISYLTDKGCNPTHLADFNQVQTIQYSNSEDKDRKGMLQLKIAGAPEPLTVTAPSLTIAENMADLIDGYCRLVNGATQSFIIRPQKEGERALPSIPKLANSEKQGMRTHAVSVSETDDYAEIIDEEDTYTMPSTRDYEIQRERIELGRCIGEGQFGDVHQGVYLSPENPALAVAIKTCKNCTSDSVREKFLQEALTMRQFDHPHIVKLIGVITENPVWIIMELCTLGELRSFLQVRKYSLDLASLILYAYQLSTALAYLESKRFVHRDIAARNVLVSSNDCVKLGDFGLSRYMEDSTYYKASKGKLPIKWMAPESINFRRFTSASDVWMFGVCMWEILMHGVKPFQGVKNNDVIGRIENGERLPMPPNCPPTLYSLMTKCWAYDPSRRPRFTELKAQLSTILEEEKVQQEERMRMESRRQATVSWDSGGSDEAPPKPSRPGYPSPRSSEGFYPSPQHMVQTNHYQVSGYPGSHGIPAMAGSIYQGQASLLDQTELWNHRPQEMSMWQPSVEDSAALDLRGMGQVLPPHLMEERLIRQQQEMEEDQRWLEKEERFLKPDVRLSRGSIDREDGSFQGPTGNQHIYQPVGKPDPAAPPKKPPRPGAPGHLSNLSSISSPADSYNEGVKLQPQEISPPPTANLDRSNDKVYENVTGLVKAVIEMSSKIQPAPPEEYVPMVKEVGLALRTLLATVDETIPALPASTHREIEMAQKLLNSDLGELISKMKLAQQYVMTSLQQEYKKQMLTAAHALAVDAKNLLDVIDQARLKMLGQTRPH
UniProt Q8C015: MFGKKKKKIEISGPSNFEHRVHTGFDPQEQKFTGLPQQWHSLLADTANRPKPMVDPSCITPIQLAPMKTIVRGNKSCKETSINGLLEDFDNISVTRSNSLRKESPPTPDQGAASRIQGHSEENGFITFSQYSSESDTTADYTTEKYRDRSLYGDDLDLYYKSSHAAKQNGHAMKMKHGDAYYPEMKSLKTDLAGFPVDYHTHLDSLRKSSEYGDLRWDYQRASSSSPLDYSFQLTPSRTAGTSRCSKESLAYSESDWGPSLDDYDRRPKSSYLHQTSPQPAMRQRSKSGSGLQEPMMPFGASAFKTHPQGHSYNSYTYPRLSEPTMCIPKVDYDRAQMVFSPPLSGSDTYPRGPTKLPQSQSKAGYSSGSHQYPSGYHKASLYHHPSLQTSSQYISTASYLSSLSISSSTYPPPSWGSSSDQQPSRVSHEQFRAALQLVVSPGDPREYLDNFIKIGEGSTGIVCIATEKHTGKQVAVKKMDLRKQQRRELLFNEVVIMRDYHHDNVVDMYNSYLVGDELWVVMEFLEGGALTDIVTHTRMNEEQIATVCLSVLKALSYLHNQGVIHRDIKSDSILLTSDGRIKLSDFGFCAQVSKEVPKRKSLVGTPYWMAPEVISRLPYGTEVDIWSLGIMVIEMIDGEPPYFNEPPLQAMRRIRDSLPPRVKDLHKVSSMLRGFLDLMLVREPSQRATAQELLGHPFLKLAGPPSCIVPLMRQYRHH
UniProt Q8BTW9: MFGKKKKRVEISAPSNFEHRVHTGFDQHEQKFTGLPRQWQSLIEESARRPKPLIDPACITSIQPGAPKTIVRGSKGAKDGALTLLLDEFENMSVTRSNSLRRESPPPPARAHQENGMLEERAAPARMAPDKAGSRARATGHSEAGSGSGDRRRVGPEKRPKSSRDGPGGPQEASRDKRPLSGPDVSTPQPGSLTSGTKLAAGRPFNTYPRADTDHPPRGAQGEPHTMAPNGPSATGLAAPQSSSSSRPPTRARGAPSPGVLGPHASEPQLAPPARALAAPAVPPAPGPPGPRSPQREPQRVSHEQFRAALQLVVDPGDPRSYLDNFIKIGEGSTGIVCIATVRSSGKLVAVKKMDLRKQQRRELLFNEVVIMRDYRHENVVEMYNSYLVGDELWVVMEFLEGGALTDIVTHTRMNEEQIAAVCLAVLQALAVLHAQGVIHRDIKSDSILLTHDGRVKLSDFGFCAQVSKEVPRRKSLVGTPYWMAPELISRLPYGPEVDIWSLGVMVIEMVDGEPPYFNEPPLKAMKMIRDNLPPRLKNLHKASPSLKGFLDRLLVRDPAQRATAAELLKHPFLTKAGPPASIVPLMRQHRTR
UniProt P18653, whole entry: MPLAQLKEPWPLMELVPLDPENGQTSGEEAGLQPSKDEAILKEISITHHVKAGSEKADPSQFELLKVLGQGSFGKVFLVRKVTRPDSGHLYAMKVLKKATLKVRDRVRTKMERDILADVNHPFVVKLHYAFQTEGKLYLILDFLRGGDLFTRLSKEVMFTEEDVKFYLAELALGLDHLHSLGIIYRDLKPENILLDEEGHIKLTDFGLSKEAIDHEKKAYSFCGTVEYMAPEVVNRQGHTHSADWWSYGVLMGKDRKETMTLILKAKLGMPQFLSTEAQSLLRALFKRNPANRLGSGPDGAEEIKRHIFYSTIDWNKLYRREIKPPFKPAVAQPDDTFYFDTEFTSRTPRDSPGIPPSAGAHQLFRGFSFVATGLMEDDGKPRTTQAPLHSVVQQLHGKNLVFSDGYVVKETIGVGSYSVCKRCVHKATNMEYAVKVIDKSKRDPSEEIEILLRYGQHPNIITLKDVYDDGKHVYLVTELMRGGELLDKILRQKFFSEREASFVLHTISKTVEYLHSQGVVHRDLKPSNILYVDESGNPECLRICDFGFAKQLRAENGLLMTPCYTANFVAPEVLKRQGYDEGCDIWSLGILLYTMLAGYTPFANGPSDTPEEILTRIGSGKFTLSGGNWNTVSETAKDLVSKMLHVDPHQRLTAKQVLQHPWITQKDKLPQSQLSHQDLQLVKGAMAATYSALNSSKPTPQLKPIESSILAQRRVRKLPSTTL
UniProt Q8BK63: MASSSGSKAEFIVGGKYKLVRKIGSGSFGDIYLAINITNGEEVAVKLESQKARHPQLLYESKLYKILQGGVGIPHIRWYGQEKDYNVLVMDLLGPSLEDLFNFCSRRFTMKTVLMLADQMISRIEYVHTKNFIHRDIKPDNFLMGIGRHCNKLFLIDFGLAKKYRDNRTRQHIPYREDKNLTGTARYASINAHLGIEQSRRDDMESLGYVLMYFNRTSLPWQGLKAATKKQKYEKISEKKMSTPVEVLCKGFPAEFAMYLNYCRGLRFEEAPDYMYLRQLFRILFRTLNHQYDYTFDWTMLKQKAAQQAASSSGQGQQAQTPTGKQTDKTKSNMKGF
UniProt Q91XU3: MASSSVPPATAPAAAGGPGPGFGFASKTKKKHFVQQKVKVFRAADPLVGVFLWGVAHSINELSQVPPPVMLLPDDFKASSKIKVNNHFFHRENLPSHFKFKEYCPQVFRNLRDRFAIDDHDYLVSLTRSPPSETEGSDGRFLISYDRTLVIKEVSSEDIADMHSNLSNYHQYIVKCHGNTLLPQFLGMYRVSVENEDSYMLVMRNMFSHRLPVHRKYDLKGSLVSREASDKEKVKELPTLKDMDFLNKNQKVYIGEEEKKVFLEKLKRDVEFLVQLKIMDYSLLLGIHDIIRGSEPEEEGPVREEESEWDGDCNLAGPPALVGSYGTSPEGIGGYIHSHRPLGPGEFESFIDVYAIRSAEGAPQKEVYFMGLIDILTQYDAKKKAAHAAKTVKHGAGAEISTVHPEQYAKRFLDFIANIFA
UniProt Q80XI4: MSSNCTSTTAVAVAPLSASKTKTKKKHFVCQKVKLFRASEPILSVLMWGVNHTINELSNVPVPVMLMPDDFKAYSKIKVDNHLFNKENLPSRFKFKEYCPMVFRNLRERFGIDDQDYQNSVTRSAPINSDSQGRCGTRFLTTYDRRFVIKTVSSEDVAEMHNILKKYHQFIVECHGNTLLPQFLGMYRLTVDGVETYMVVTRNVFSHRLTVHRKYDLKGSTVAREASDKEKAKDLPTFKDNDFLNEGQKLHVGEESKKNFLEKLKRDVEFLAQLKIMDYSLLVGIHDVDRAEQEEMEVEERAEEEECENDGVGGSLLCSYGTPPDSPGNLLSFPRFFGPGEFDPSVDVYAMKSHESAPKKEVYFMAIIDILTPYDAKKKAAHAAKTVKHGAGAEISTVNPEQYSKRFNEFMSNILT
UniProt Q9DC28: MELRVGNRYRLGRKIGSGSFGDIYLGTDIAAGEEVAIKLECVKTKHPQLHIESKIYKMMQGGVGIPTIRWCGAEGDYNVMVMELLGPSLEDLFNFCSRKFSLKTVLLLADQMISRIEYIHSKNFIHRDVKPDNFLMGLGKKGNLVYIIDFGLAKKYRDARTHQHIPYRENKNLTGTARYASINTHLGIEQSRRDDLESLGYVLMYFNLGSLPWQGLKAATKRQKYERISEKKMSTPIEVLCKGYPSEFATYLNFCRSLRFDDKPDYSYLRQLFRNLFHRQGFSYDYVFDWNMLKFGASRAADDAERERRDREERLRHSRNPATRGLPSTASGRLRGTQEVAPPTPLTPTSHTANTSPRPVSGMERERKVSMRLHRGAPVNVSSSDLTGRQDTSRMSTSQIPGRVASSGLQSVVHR
UniProt O70172: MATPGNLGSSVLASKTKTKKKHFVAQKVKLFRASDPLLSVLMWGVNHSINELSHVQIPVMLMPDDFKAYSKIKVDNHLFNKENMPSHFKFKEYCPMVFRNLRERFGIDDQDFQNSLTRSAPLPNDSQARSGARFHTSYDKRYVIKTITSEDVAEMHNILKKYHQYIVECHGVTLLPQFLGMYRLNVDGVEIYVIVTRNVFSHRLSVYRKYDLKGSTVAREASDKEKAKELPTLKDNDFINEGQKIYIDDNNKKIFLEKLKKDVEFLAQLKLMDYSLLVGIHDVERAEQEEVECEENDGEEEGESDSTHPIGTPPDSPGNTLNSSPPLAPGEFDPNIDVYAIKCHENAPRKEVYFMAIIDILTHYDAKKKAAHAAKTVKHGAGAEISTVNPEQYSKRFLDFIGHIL
UniProt Q63844, whole entry: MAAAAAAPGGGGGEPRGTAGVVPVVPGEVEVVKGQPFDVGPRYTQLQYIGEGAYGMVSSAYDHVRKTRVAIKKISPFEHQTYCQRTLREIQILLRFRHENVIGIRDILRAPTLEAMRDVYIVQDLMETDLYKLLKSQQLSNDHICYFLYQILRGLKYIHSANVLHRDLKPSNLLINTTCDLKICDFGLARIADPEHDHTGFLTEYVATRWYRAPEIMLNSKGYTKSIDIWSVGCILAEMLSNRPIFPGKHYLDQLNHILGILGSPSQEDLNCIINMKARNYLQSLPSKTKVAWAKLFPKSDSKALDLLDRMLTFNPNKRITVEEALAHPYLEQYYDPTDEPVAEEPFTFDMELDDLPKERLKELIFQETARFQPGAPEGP
UniProt Q99J95, whole entry partner: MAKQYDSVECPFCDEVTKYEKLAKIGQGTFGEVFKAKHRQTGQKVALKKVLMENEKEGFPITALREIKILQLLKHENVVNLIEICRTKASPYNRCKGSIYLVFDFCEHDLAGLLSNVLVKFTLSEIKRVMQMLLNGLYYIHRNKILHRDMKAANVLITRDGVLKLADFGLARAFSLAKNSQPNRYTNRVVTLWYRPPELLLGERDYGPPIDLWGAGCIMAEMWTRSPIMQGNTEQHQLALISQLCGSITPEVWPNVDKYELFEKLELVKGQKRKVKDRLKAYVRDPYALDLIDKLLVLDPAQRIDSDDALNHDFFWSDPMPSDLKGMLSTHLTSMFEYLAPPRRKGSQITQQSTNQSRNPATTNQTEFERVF
UniProt Q9JMK2: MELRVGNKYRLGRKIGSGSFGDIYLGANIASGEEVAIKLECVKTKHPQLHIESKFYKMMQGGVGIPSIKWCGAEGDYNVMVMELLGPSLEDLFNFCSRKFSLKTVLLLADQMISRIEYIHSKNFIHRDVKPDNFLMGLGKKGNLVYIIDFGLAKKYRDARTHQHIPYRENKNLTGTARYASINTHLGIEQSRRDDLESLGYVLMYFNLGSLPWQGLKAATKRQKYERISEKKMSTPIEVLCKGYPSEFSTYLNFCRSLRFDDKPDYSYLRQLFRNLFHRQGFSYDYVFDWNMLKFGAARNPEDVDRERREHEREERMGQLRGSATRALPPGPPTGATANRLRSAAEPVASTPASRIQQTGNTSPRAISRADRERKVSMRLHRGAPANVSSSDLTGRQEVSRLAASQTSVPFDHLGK

How the values were obtained:
Experiment in all cases: biochemical
[1] = target: Focal adhesion kinase 1 (FAK) (Mus musculus, UniProt P34152)
[2] = target: p21-activated kinase 5 (PAK5) (Mus musculus, UniProt Q8C015)
[3] = target: p21-activated kinase 4 (PAK4) (Mus musculus, UniProt Q8BTW9)
[4] = target: 90 kDa ribosomal protein S6 kinase 1 (p90RSK1) (Mus musculus, UniProt P18653)
[5] = target: 90 kDa ribosomal protein S6 kinase 4 (MSK2) (Mus musculus, UniProt Q9Z2B9)
[6] = target: Casein kinase I isoform alpha (CSNK1A1) (Mus musculus, UniProt Q8BK63)
[7] = target: Phosphatidylinositol-5-phosphate 4-kinase type II gamma (PIP4K2C) (Mus musculus, UniProt Q91XU3)
[8] = target: Proline-rich tyrosine kinase 2 (PYK2) (Mus musculus, UniProt Q9QVP9)
[9] = target: 1-phosphatidylinositol-5-phosphate 4-kinase 2-beta (PIP4K2B) (Mus musculus, UniProt Q80XI4)
Cyclin-T1 (CCNT1) = Cyclin-T1 (CCNT1) (Mus musculus, UniProt Q9QWV9)
[10] = target: Casein kinase I isoform delta (CSNK1D) (Mus musculus, UniProt Q9DC28)
[11] = target: 1-phosphatidylinositol-5-phosphate 4-kinase 2-alpha (PIP4K2A) (Mus musculus, UniProt O70172)
[12] = target: Extracellular signal-regulated kinase 1 (ERK1) (Mus musculus, UniProt Q63844)
[13] = target: Cyclin-dependent kinase 9 (CDK9) (Mus musculus, UniProt Q99J95)
[14] = target: 90 kDa ribosomal protein S6 kinase 2 (p90RSK2) (Mus musculus, UniProt Q9WUT3)
[15] = target: 90 kDa ribosomal protein S6 kinase 3 (p90RSK3) (Mus musculus, UniProt P18654)
[16] = target: Casein kinase I isoform epsilon (CSNK1E) (Mus musculus, UniProt Q9JMK2)

CC[C@H](CO)Nc1nc(NCc2ccccc2)c2ncn(C(C)C)c2n1 [Roscovitine, (R)-roscovitine]
Kd [1]: 19.8 µM
Kd [2]: 1.53 µM
Kd [3]: 0.034 µM
Kd [4]: 14.7 µM
Kd [5]: 9.6 µM
Kd [6]: 7.37 µM
Kd [7]: 24.9 µM
Kd [8]: 27.8 µM
Kd [9]: 12.4 µM
Kd (Cyclin-T1 (CCNT1)): 0.046 µM
Kd [10]: 0.501 µM
Kd [11]: 8.32 µM
Kd [12]: 37.5 µM
Kd [13]: 0.09 µM
Kd [14]: 8.55 µM
Kd [15]: 18.9 µM
Kd [16]: 0.602 µM
